Assay results reported in PMC2862300.
No constants are given. Whether binding was seen depends on the method and setting. In cells and extracts the contact can be indirect. Some entries that bind do so weakly or less than the wild type.

Amino acid sequences for entries named in this document (tags omitted). A change or cut given only in a name is not applied to a line headed by its entry. Chains listed by the source or under a name are the forms on record and can include a tag or linker.
Xenopus Nedd4 tagged with a Myc tag (1M-Nedd4) (O42573, form named): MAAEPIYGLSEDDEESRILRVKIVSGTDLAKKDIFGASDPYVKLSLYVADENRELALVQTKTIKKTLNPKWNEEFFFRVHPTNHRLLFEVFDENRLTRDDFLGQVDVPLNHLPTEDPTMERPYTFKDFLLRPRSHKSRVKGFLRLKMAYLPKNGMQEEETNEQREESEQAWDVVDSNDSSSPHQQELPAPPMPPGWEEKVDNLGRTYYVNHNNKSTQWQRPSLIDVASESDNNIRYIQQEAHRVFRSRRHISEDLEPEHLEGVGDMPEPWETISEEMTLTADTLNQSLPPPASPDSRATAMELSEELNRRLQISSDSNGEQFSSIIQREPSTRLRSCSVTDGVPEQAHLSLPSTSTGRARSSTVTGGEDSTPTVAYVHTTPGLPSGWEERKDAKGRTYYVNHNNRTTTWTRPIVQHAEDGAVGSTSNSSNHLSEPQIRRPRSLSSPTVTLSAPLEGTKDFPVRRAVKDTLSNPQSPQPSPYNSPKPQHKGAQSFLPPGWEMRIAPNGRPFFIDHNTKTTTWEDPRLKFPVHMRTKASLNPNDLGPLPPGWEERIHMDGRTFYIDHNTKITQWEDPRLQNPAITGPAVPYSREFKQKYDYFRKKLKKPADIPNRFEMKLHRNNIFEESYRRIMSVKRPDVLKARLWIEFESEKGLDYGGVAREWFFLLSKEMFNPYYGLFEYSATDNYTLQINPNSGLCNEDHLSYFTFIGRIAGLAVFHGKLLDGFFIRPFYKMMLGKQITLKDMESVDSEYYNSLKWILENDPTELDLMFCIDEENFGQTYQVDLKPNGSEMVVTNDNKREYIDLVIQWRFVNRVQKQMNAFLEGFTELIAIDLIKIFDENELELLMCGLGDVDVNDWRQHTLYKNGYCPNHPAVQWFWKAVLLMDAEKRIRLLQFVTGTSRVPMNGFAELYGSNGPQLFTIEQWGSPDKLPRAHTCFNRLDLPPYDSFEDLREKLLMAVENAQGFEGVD

Tests used:
[1] = molecular target: Xenopus PTEN tagged with EGFP (GFP-PTEN) (Xenopus) (UniProt Q9PUT6); assay: co-IP; both co-transfected in HEK293T cells, treated with 25 uM LnLL (proteasome inhibitor) for 16 hr; lysed in IP buffer (50 mM HEPES pH 7.4, 50 mM NaCl, 1 mM EDTA, 1 mM EGTA, 1% Triton X-100) with 50 uM LnLL; IP with anti-Myc 9E10 or anti-GFP or control mouse IgG, Protein G-Sepharose; western blot with anti-Myc and anti-GFP
[2] = molecular target: Xenopus Nedd4 tagged with a Myc tag (1M-Nedd4) (Xenopus) (UniProt O42573); assay: as above

Substance: Xenopus Nedd4 tagged with a Myc tag (1M-Nedd4) (from UniProt O42573 1-971) (enzyme)
- binding [1]: binds

Substance: Xenopus PTEN tagged with EGFP (GFP-PTEN) (from UniProt Q9PUT6 1-402) (enzyme)
- binding [2]: binds
